The record followed here is patent EP3470426A1.

The chains behind the UniProt entries cited, without tags or fusion partners. Where a name states a change or a piece, a line headed by the entry shows the natural chain unless it says otherwise.
UniProt Q07011: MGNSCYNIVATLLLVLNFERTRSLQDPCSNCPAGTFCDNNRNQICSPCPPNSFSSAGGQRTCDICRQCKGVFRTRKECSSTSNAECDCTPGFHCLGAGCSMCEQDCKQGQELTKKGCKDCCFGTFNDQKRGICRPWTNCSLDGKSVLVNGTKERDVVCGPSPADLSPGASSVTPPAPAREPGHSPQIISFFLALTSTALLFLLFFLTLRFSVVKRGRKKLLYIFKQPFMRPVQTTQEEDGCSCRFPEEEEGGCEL

Test [1] concerns the target CD137 (recombinant, form not given) (human) (UniProt Q07011). The test can be described thus: SPR sandwich epitope binning.
The target is the same in test [2]. The experiment in a line: SPR sandwich epitope binning (MASS-1), CD137 captured by PRO951.
The target is the same in test [3]. The experiment in a line: SPR sandwich epitope binning (MASS-1).

These are yes or no findings as the source states them, for the method shown. Some entries that bind do so weakly or less than the wild type.

B1: PRO885 (bispecific antibody)
chain: DIQMTQSPSSLSASVGDRVTITCQASQSINDYLAWYQQKPGKAPKLLIYKASTLASGVPSRFSGSGSGTDFTLTISSLQPEDFATYYCQQGYIITDIDNVFGTGTKVTVLGGGGGSQVQLQESGPGLVKPSETLSLTCKVSGFSFSNSYWICWIRQPPGKGLEWIGCTFVGSSDSTYYANWAKGRVTISVDSSKNQFSLKLSSVTAADTAVYYCARHPSDAVYGYANNLWGQGTLVTVSSGGGGSGGGGSGGGGSGGGGSIQMTQSPSSLSASVGDRVTITCQASQSINNVLAWYQQKPGKAPKLLIYRASTLASGVPSRFSGSGSGTDFTLTISSLQPEDFATYYCQSSYGNYGDFGTGTKVTVLGGGGGSQVQLQESGPGLVKPSETLSLTCKVSGFSFSSGYDMCWIRQPPGKGLEWIGCVVAGSVDITYYASWAKGRVTISVDSSKNQFSLKLSSVTAADTAVYYCARKDAYSDAFNLWGQGTLVTVSS
With B1, the binding result in test [1] and in test [2] was “binds” throughout.

B2: PRO951 (bispecific antibody)
chain: DIQMTQSPSSLSASVGDRVTITCQASQSINDYLAWYQQKPGKAPKLLIYKASTLASGVPSRFSGSGSGTDFTLTISSLQPEDFATYYCQQGYIITDIDNVFGTGTKVTVLGGGGGSEVQLVESGGGLVQPGGSLRLSCAASGFSFNNDYDMCWVRQAPGKGLEWIGCIDTGDGSTYYASWAKGRFTISRDNSKNTVYLQMNSLRAEDTAVYYCAREAASSSGYGMGYFDLWGQGTLVTVSSGGGGSGGGGSGGGGSGGGGSIQMTQSPSSLSASVGDRVTITCQSSQSVYDNNWLAWYQQKPGKAPKLLIYRASNLASGVPSRFSGSGSGTDFTLTISSLQPEDFATYYCQGTYLSSNWYWAFGTGTKVTVLGGGGGSQVQLQESGPGLVKPSETLSLTCKVSGFSFSSGYDMCWIRQPPGKGLEWIGCVVAGSVDITYYASWAKGRVTISVDSSKNQFSLKLSSVTAADTAVYYCARKDAYSDAFNLWGQGTLVTVSS
Consider B2, for which the binding entry in test [3] and in test [1] was “binds” each time.
